# Experimental data: PubChem BioAssay AID1487 (National Center for Advancing Translational Sciences (NCATS), 2009)
# Some of the results follow. Further columns of the screen follow, without active or inactive calls. Most of these compounds were active or inconclusive in the main read-out, so they are no random draw. Words in brackets tell the shape of the fitted curve; partial curves, single points and poor fits give uncertain potencies.
# Assay: qHTS Assay for Modulators of Lamin A Splicing
# Settings: HeLa LMNA splicing GFP/RFP minigene ratio, 48 h
# Outline: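 S3 HeLa cells stably expressing lamin A-EGFP splicing minigene plus DsRed2, 600 cells/well, 48 h compound exposure at 37C. Laser-scanning cytometry; analysed as GFP (500-530 nm)/RFP (575-640 nm) total intensity ratio; 0.5% DMSO vehicle.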
# [1] = measured here: GFP splicing reporter channel
# [2] = measured here: RFP viability control channel
Structure (SMILES),AC50 [1],AC50 [2]
COc1ccc(C=C(c2nc3ccccc3s2)c2nc3ccccc3s2)cc1O,"0.0355 µM [falling, full curve, poor fit]","5.62 µM [rising, single point]"
CCc1ccc(NC(=O)CSc2nc(-c3ccccc3)c(C#N)c(=O)[nH]2)cc1,–,"0.0891 µM [falling, full curve, poor fit]"
COC(=O)c1ccc2nc(Nc3nc4ccc(F)cc4s3)sc2c1,–,"0.501 µM [rising, partial curve]"
O=C(CCN1CCN(c2ccccc2)CC1)N/N=C/c1ccccc1O,–,"25.1 µM [rising, partial curve, poor fit]"
COc1cccc(-c2c[nH]c(=O)[nH]c2=O)c1,–,"3.16 µM [rising, single point]"
CCCCn1c(N)c(N(CCC(C)C)C(=O)CSc2nnc(Nc3ccccc3)s2)c(=O)[nH]c1=O,"0.02 µM [rising, full curve, poor fit]",–
O=C(CCCSc1nc2ccccc2c(=O)[nH]1)c1ccccc1,"0.251 µM [falling, full curve, poor fit]","0.00316 µM [falling, full curve, poor fit]"
CCOc1ccc(CNC(=O)C2CCCN(S(=O)(=O)c3ccc4c(c3)CCCC(=O)N4)C2)cc1 (configuration not stated),"10 µM [falling, partial curve]",–
CC(C)(C)c1nnc2sc(SCC(=O)c3cccs3)nn2c1=O,–,"11.2 µM [rising, single point]"
O=C(c1ccc(CSc2ccccc2)cc1)N1CCCCCC1,–,"25.1 µM [rising, single point]"
COc1ccc(CNc2ccnc(-c3ccc4c(c3)OCO4)n2)c(OC)c1,"12.6 µM [falling, partial curve]",–
O=C1C(Nc2ccccc2)=C(N2CCCCC2)C(=O)c2ccccc21,"28.2 µM [falling, single point]","0.141 µM [falling, partial curve]"
Cc1ccc2c(c1)NC(=O)C(CC(=O)NCCCN1CCN(c3cc(Cl)ccc3C)CC1)O2 (configuration not stated),–,"12.6 µM [rising, partial curve]"
Cc1cccc(/C=C\c2nc3ccccc3c(=O)[nH]2)c1,–,"35.5 µM [rising, single point]"
CC(=O)c1cccc(Nc2nc(-c3cccc([N+](=O)[O-])c3)cs2)c1,"35.5 µM [rising, single point]","28.2 µM [rising, partial curve]"
CN(C)CC(O)COC(c1ccc(Cl)cc1)c1ccc(Cl)cc1 (configuration not stated),"0.0708 µM [falling, partial curve]","0.158 µM [falling, single point]"
O=c1cc(NC2CCCCC2)c2ccccc2o1,"35.5 µM [rising, single point]","35.5 µM [rising, single point]"
Cc1ccc(S(=O)(=O)C(CNC(=O)C(=O)NCCc2ccccc2)c2ccco2)cc1 (configuration not stated),"0.0251 µM [falling, full curve, poor fit]",–

Structure (SMILES),AC50 [1],AC50 [2]
Cc1ccc(C(=O)Nc2nnc(-c3ccco3)o2)cc1C,–,"22.4 µM [rising, partial curve]"
CC1(C)OC(C)(C)/C(=C/Nc2ccc(O)cc2)C1=O,–,"7.08 µM [rising, partial curve, poor fit]"
O=C(CCNS(=O)(=O)c1ccc2c(c1)CCN2C(=O)C1CC1)N1CCN(c2ccc(F)cc2)CC1,"1.26 µM [falling, full curve]","20 µM [falling, partial curve, poor fit]"
O=[N+]([O-])c1cccc(COc2ncnc3cc([N+](=O)[O-])ccc23)c1,–,"20 µM [falling, single point]"
Cc1ccccc1NC(=O)N1CCCC(c2nc(-c3ccc(C(C)C)cc3)no2)C1 (configuration not stated),"15.8 µM [rising, single point]","20 µM [rising, single point]"
O=c1c2c([nH]n1-c1ccccc1)CCCC2,"1.58 µM [rising, full curve, poor fit]",–
N#C/C(C(=S)Nc1ccccc1)=C1/NN=C(N2CCOCC2)N1c1ccccc1,–,"2 µM [rising, partial curve, poor fit]"
Cc1onc(-c2ccccc2)c1C(=O)Nc1nc(-c2ccccc2)cs1,–,"14.1 µM [rising, single point]"
CCn1c2c(c(=O)n3ncc(C(=O)Nc4cccc(Cl)c4C)c13)CN(Cc1ccc(OC)cc1)CC2,"35.5 µM [falling, single point]",–
Cc1ccccc1OCC(O)Cn1c(NCc2ccco2)nc2c1c(=O)n(C)c(=O)n2C (configuration not stated),"25.1 µM [rising, single point]","12.6 µM [rising, single point]"
Cc1ccc(-c2csc(-c3c[nH]c4ccccc34)n2)c(C)c1,"35.5 µM [rising, single point]",–
Oc1[nH]c2ccccc2c1N=NC(=S)NCC1CCCO1 (configuration not stated),–,"17.8 µM [rising, partial curve]"
O=S1(=O)Nc2c(ccc3cccnc23)-c2ccccc21,–,"0.794 µM [rising, full curve]"
COc1ccc(C(=O)/C=C/c2ccc(OC)c(CN3CCOCC3)c2)cc1,"35.5 µM [falling, single point]",–
COc1cccc(-c2noc(C3CCCN(S(=O)(=O)c4cccc(Cl)c4C)C3)n2)c1 (configuration not stated),"35.5 µM [rising, single point]","25.1 µM [rising, partial curve]"
Cc1ccc(NC(=O)c2ccc(-n3c(C)nnc3C)cc2)cc1F,"35.5 µM [falling, partial curve, poor fit]",–
Cc1cc2ccccc2c(=O)n1CC(=O)NCC(=O)N1CCN(c2ccccc2F)CC1,–,"6.31 µM [falling, single point]"
S=C(NNc1ccnc2cc(Cl)ccc12)Nc1ccccc1Cl,"5.01 µM [rising, partial curve, poor fit]","12.6 µM [rising, partial curve]"

# Some of these compounds in order of molecular weight, low to high:
Structure (SMILES),AC50 [1],AC50 [2]
COc1cccc(-c2c[nH]c(=O)[nH]c2=O)c1,–,"3.16 µM [rising, single point]"
O=C1C(Nc2ccccc2)=C(N2CCCCC2)C(=O)c2ccccc21,"28.2 µM [falling, single point]","0.141 µM [falling, partial curve]"
COC(=O)c1ccc2nc(Nc3nc4ccc(F)cc4s3)sc2c1,–,"0.501 µM [rising, partial curve]"
CC(C)(C)c1nnc2sc(SCC(=O)c3cccs3)nn2c1=O,–,"11.2 µM [rising, single point]"
CCc1ccc(NC(=O)CSc2nc(-c3ccccc3)c(C#N)c(=O)[nH]2)cc1,–,"0.0891 µM [falling, full curve, poor fit]"
Cc1ccccc1NC(=O)N1CCCC(c2nc(-c3ccc(C(C)C)cc3)no2)C1 (configuration not stated),"15.8 µM [rising, single point]","20 µM [rising, single point]"
Cc1ccccc1OCC(O)Cn1c(NCc2ccco2)nc2c1c(=O)n(C)c(=O)n2C (configuration not stated),"25.1 µM [rising, single point]","12.6 µM [rising, single point]"
Cc1ccc(S(=O)(=O)C(CNC(=O)C(=O)NCCc2ccccc2)c2ccco2)cc1 (configuration not stated),"0.0251 µM [falling, full curve, poor fit]",–
COc1cccc(-c2noc(C3CCCN(S(=O)(=O)c4cccc(Cl)c4C)C3)n2)c1 (configuration not stated),"35.5 µM [rising, single point]","25.1 µM [rising, partial curve]"
Cc1ccc2c(c1)NC(=O)C(CC(=O)NCCCN1CCN(c3cc(Cl)ccc3C)CC1)O2 (configuration not stated),–,"12.6 µM [rising, partial curve]"
